Experimental data: patent EP0462621A2, “Use of particular compounds for manufacture of pharmaceutical formulations for treatment against various parasites, mycoplasmas, other indications and other infections” (Prendergast, Patrick Thomas, priority 1990, dated 1991)
At least one structure is not confirmed: it was looked up by name or label, or the drawing left a doubt.

Tests used:
[1] = tested on: T.b. brucei, T.b. gambiense and T.b. rhodesiense; test: African trypanosomiasis mouse model, in-vivo
Description: Primary screening for new trypanocides has made extensive use of rodent systems, in which host survival time is a simple indicator of drug activity. In-vitro screens have used a variety of trypomastigote types (see Table 3, below). […] Most early in-vitro screens employed a short test in which bloodstream trypomastigotes were isolated from an infected rodent and maintained for up to 24 h in a simple drug-containing media. Two significant modifications of this technique include maintaining isolated bloodstream trypomastigotes in drug-containing media for 3-4 hours at 37° C in micro-titre plates and their subsequent viability assessed by the uptake of radiolabelled precursors or motility and infectivity to mice.
In-vitro and in-vivo models were used to test activities of a selection of many compounds. Those activities are summarized in Tables 1-3, showing variation between systems and species. Activities measured in the MP mo and HM mo models have shown the best correlation with results obtained in hamster and mouse models.

PBL = test: Growth of PBL following cocultivation of patient's lymphocytes with PHA-PBL; assay type: cell-based, human; conditions: cells recovered at 10 days, 0 µM: 2.9 x 10^6
H9 cells = test: Growth of H9 cells following in-vitro infection, viable cells by trypan blue exclusion; assay type: cell-based, human; conditions: cells recovered after 10 days, 0 µM: 3.4 x 10^6
[2] = tested on: T.b. brucei, T.b. gambiense and T.b. rhodesiense; test: Cultivated bloodstream trypomastigote (TRY) in-vitro screen; assay type: cell-based
Excerpt: Culture systems developed in the last decade have used mammalian cell feeder layers to support the growth of dividing populations of bloodstream trypomastigotes of T. brucei spp. Some of these systems have been used in chemotherapy studies, including; (1) bovine fibroblast culture - T. brucei models to test some standard and experimental compounds, (2) murine bone marrow culture - T.b. gambiense model to screen inosine analogues and platinum and hypolipidemic compounds, and (3) Microtus embryonic fibroblast culture (MEF) - T.b. rhodesiense model to test standard and experimental drugs. These systems give a good indication of in-vivo activity (see Table 3). They measure activity against dividing cells rather than specific macromolecular synthesis pathways and can be readily established in micro-titre plates. The MEF and bone marrow cell feeder layers can be used to grow a range of strains of T. brucei spp., offering the possibility of examining variations in drug susceptibility and resistance between strains. The presence of a feeder layer, however, limits the opportunities for the automation of these systems.
In-vitro and in-vivo models were used to test activities of a selection of many compounds. […] Activities measured in the MP mo and HM mo models have shown the best correlation with results obtained in hamster and mouse models.

| Compound | activity, mouse model [1] | Number of cells following cocultivation of patients PBL with PHA-PBL (PBL; IPA 3.75 µM) | Number of cells following cocultivation of patients PBL with PHA-PBL (PBL; IPA 7.5 µM) | Number of cells following cocultivation of patients PBL with PHA-PBL (PBL; IPA 15 µM) | Number of cells following cocultivation of patients PBL with PHA-PBL (PBL; IPA 30 µM) | Number of viable cells following in-vitro infection of H9 (H9 cells; IPA 3.75 µM) | Number of viable cells following in-vitro infection of H9 (H9 cells; IPA 7.5 µM) | Number of viable cells following in-vitro infection of H9 (H9 cells; IPA 15 µM) | Number of viable cells following in-vitro infection of H9 (H9 cells; IPA 30 µM) | activity, cultivated bloodstream TRY [2] |
| --- | --- | --- | --- | --- | --- | --- | --- | --- | --- | --- |
| OC[C@H]1O[C@@H](n2cnc3c(NCc4ccco4)ncnc32)[C@H](O)[C@@H]1O [Furfuryladenosine] | + | – | – | – | – | – | – | – | – | – |
| CC(C)=CCNc1ncnc2c1ncn2[C@@H]1O[C@H](CO)[C@@H](O)[C@H]1O [IPA, N^6-(Δ^2-isopentenyl) adenosine] | – | 2.9 x 10^6 | 2.8 x 10^6 | 2.8 x 10^6 | 2.7 x 10^6 | 3.4 x 10^6 | 3.5 x 10^6 | 3.3 x 10^6 | 2.7 x 10^6 | + + |
